Legend:
[1] = molecular target: APOBEC3B (Homo sapiens) (UniProt Q9UH17); test: enzyme reaction in vitro; conditions: UDG/NaOH cleavage, 37 C 2 h, protein in an extract, protein details: endogenous, MDA-MB-453 cell extract, label: 5' IRD800
[2] = molecular target: APOBEC3A (Homo sapiens) (UniProt P31941); test: enzyme reaction in vitro; conditions: active in extracts with cellular RNA present; A3A deletion gave loss comparable to A3B deletion; double loss required to eliminate activity; protein in an extract; protein details: endogenous, MDA-MB-453 cell extract; label: 5' IRD800; single-stranded DNA

Chains of the proteins cited; added tags and fusions are not shown. Lines headed by an entry give the natural chain unless they say otherwise; changes in a name come on top.
UniProt Q9UH17: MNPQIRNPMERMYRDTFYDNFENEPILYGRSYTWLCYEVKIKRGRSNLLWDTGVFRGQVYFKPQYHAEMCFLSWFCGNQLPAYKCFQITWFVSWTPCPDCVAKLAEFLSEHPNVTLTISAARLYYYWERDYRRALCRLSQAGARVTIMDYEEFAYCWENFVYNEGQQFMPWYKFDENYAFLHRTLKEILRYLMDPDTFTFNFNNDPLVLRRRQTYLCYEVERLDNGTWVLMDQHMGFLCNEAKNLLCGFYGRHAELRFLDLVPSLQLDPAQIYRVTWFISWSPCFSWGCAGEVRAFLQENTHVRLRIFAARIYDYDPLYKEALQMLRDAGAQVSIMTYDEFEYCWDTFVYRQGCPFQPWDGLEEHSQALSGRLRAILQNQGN
UniProt P31941: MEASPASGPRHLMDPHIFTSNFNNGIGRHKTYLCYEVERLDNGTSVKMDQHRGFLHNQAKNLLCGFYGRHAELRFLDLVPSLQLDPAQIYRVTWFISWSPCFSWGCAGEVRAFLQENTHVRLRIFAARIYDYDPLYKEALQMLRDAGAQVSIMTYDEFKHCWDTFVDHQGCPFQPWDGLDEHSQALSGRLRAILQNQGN

Sequence	activity on this sequence ([1]; major deaminase activity in WT/KO extracts, RNase A treated, single-stranded …)	activity on this sequence ([1]; major activity after RNase A, inhibited by cellular RNA without RNase but still active, single-stranded DNA)	activity on this sequence [2]
ATTATTATTATTATTATTATTTCATTTATTTATTTATTTA [linear deaminase probe]	active		
ATTATTATTATTGCAAGCTGTTCAGCTTGCTGAATTTATT [hairpin deaminase probe]		active	active

Reference: US20240309457
